The list shows a part of the results. Some results for these compounds are left out of this collection, so the calls shown say nothing about other tests.
Assay: autophagy modulators in MEF cells, primary screen, imaging, high-content, MEF GFP-LC3 (AID 463193);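 note: cell loss after 18 h compound exposure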
Details: MEF GFP-LC3 puncta imaging, measured here: cell loss, nuclei count, at 10 µM

SMILES	toxicity
O=C(NCC1(N2CCCCC2)CCCCC1)c1cc([N+](=O)[O-])ccc1Cl	-15%
CC(C)N1C(=O)CC2(CCN(CCOC(=O)C(O)(c3ccccc3)c3ccccc3)CC2)C1=O	-4.83%
CN(C)C1CCCC1OC(=O)C(O)(c1ccccc1)c1ccccc1 (centres undefined)	6.11%
Cc1ccccc1C(=O)NCC1(N2CCCCC2)CCCCC1	-3.89%
CCN1CCCC(OC(=O)C2(O)c3ccccc3C=Cc3ccccc32)C1 (centres undefined)	0.326%
C=CCN1CCN(CCOC(=O)C(O)(c2ccccc2)c2ccccc2)CC1	7.15%
COc1cccc(C(=O)NCC2(N3CCCCC3)CCCCC2)c1	29.7%
O=C(OC1CN2CCC1CC2)C(CO)(c1ccccc1)c1ccccc1 (centres undefined)	-2.03%
CN(C)c1cccc(C(=O)NCC2(N(C)C)CCCCC2)c1	6.95%
